The record followed here is paper PMC7480108.

The target in this test is T1, TKS4^GFP (UniProt A1X283).
T1 sequence: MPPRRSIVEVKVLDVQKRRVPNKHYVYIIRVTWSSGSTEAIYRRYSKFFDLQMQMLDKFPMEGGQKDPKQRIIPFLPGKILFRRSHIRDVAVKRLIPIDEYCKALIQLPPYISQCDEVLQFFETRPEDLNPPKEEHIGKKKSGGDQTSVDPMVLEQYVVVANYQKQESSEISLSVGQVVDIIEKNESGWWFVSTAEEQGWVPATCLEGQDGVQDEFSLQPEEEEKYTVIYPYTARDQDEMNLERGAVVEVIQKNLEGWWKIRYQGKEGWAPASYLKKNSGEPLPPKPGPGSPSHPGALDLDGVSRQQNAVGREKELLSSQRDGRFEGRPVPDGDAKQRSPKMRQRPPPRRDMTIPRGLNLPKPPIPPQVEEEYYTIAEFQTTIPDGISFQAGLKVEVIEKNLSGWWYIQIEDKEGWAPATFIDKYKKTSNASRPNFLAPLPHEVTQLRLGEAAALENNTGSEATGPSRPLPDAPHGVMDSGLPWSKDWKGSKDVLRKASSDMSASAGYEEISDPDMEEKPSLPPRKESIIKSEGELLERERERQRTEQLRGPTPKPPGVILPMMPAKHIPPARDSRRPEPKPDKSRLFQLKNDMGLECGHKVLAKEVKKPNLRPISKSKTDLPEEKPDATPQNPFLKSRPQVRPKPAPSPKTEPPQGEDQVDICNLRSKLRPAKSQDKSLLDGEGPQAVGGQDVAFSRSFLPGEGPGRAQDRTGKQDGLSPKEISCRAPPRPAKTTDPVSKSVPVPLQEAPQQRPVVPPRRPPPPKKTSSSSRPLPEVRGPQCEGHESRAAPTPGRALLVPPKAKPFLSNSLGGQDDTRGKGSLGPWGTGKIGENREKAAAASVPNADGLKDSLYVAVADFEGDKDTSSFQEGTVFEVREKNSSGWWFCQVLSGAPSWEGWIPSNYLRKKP
Nature of the test: co-IP; GFP-Trap (anti-GFP nanobody beads) from NP-40 lysates of MDA-MB-231 cells expressing GFP-tagged constructs, 1 h 4°C; immunoblotting of bound proteins. On the technique in general: Immunoblotting shows a protein as a band on a membrane.

These are yes or no findings as the source states them, for the method shown. In cells and extracts the contact can be indirect. Tags and fused reporters may be left off the sequences shown.

B1: endogenous FGD1 (faciogenital dysplasia protein 1) (protein, UniProt P98174 1-961)
chain: MHGHRAPGGAGPSEPEHPATNPPGAAPPACADSDPGASEPGLLARRGSGSALGGPLDPQFVGPSDTSLGAAPGHRVLPCGPSPQHHRALRFSYHLEGSQPRPGLHQGNRILVKSLSLDPGQSLEPHPEGPQRLRSDPGPPTETPSQRPSPLKRAPGPKPQVPPKPSYLQMPRMPPPLEPIPPPPSRPLPADPRVAKGLAPRAEASPSSAAVSSLIEKFEREPVIVASDRPVPGPSPGPPEPVMLPQPTSQPPVPQLPEGEASRCLFLLAPGPRDGEKVPNRDSGIDSISSPSNSEETCFVSDDGPPSHSLCPGPPALASVPVALADPHRPGSQEVDSDLEEEDDEEEEEEKDREIPVPLMERQESVELTVQQKVFHIANELLQTEKAYVSRLHLLDQVFCARLLEEARNRSSFPADVVHGIFSNICSIYCFHQQFLLPELEKRMEEWDRYPRIGDILQKLAPFLKMYGEYVKNFDRAVELVNTWTERSTQFKVIIHEVQKEEACGNLTLQHHMLEPVQRIPRYELLLKDYLLKLPHGSPDSKDAQKSLELIATAAEHSNAAIRKMERMHKLLKVYELLGGEEDIVSPTKELIKEGHILKLSAKNGTTQDRYLILFNDRLLYCVPRLRLLGQKFSVRARIDVDGMELKESSNLNLPRTFLVSGKQRSLELQARTEEEKKDWVQAINSTLLKHEQTLETFKLLNSTNREDEDTPPNSPNVDLGKRAPTPIREKEVTMCMRCQEPFNSITKRRHHCKACGHVVCGKCSEFRARLVYDNNRSNRVCTDCYVALHGVPGSSPACSQHTPQRRRSILEKQASVAAENSVICSFLHYMEKGGKGWHKAWFVVPENEPLVLYIYGAPQDVKAQRSLPLIGFEVGPPEAGERPDRRHVFKITQSHLSWYFSPETEELQRRWMAVLGRAGRGDTFCPGPTLSEDREMEEAPVAALGATAEPPESPQTRDKT
Take B1: the binding entry is reported as “no binding”.
